Reference: the supplement of paper PMC3334620
In all, about 33,000 sequences were measured (“E-score (-0.5 to 0.5)”: median about -0.0059, highest 2% from about 0.26 on). Some of the results follow.

biological target: T1, Cin5 (UniProt P40917); assay: PBM E-score (8-mer binding enrichment) (E-score (-0.5 to 0.5)); higher = stronger / more preferred TF binding; conditions: protein concentration: 100 nM; construct: GST-full length
T1 sequence: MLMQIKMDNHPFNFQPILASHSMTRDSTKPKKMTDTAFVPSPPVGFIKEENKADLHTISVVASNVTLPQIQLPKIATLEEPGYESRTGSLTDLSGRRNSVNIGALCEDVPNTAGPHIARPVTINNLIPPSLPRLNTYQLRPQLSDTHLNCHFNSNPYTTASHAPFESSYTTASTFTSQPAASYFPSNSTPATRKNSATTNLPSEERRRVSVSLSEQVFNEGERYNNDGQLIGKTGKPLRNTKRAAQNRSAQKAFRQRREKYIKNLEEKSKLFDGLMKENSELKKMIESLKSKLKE
In short: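 Each ungapped eight-base word and its reverse complement, pooled, received an E-score from the Universal PBM Analysis Suite. Underlying scans, normalised with masliner, recorded fluorescent anti-GST bound to GST-tagged yeast transcription factors. These were applied at about 100-200 nM to universal all-10-mer Agilent arrays double-stranded by primer extension.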

Row | Sequence | PBM E-score
1 | CTTATCTA | 0.276
2 | AGATGCCA | 0.0194
3 | CCTTCCAG | -0.127
4 | GGCCCGCA | -0.0944
5 | AATGAAGA | 0.213
6 | CCATGACC | -0.155
7 | AGAGCGTG | -0.0592
8 | AGCCGCGC | 0.086
9 | AATTACGA | 0.313
10 | CCTTGACG | -0.152
11 | GGTCTCCA | -0.0726
12 | GAGTCTTA | -0.21
13 | ATGTCATA | 0.299
14 | CACACCAA | 0.167
15 | GCCACCAA | 0.0137
16 | GTTCTAGA | -0.0278
17 | AGCTTTTG | 0.0342
18 | TCGTCGAA | -0.161
19 | CTGCTCCA | -0.0749
20 | ACTCGTCG | -0.0841
21 | TATTTTCA | 0.167
22 | TCTGGGAA | -0.0808
23 | AGCTACCT | -0.0535
24 | ATTGCGAG | 0.074
25 | AATCGACA | 0.226

Pulled one by one from above:
Row | Sequence | PBM E-score
22 | TCTGGGAA | -0.0808
8 | AGCCGCGC | 0.086
7 | AGAGCGTG | -0.0592
13 | ATGTCATA | 0.299
19 | CTGCTCCA | -0.0749

The list goes on:

Row | Sequence | PBM E-score
26 | CCTAGTTC | 0.0162
27 | AAGTATAG | 0.0266
28 | CAATGCGG | 0.0282
29 | AGTACAAC | 0.0989
30 | CACTAGGG | -0.0698
31 | GGACACAC | -0.102
32 | CGAGCGCG | 0.0115
33 | ACTCAGGG | -0.0103
34 | CCCACTTA | 0.209
35 | CGCAACAG | -0.0481
36 | CCAGATCG | -0.134
37 | ACATAGAA | 0.244
38 | ATTTTCAA | 0.0848
39 | CAAACTAC | 0.0495
40 | AGCTGCCA | -0.105
41 | GCTCCCAC | -0.211
42 | CGTTCCGC | 0.119
43 | CTGGATTC | 0.0815
44 | ACTTCCTC | -0.0174
45 | CAGCCCTG | -0.351
46 | AAGACAAA | 0.17
47 | CAGCGGAC | -0.0793
48 | ATACCTCA | 0.0518
49 | ATTACAAC | 0.196
50 | TAAAGGTA | -0.0752

Row | Sequence | PBM E-score
51 | CACTAAAG | -0.00827
52 | CTTTGATC | -0.00568
53 | ATTGCTCA | 0.0762
54 | CAATCCGG | 0.125
55 | CAGCTACC | -0.0939
56 | ATTTGCTC | 0.0587
57 | AGATTGTG | 0.0343
58 | TCCCGTAA | 0.116
59 | CGACGCAG | -0.216
60 | AGAGAAAG | -0.00588
61 | GCTGAAGA | 0.0402
62 | AACAGCTG | -0.0187
63 | AACTGCAC | 0.068
64 | CAACTGTA | 0.0882
65 | CCACTTCG | -0.0194
66 | ATTGTTTC | 0.275
67 | CCCGAGGA | -0.106
68 | ATGTCAGG | 0.0341
69 | CACCTAAC | -0.043
70 | CTGGTTTA | -0.14
71 | TCTCGACA | -0.0328
72 | AGTACACA | 0.235
73 | GCTTTCGA | -0.174
74 | CAAGATTA | 0.0898
75 | CTTGTCTC | -0.109

Row | Sequence | PBM E-score
76 | CCATGCTC | -0.224
77 | CAAAAGAA | 0.191
78 | CTCTGTGC | -0.0888
79 | AAAGCCCC | -0.127
80 | CAAAGCAG | -0.0181
81 | AGGAGGAG | -0.221
82 | CTTTGATA | 0.116
83 | CGGTGTTC | -0.0558
84 | ATCTTTAA | 0.0357
85 | ACTTATAT | 0.254
86 | ACAGGCGT | -0.23
87 | AGGGGCGC | -0.0923
88 | AAGGAGCC | -0.259
89 | AAACTTTC | -0.00907
90 | ATTAATGA | 0.29
91 | ACGTGAGG | -0.0115
92 | ATCAGAGG | -0.178
93 | AAACAATC | 0.135
94 | ATACATGG | 0.173
95 | CAATCCCA | -0.0745
96 | CGCTTGAA | 0.0957
97 | GCTCACAC | -0.00642
98 | AGGCGAAT | 0.0401
99 | GGTACGAA | 0.0708
100 | GAGATGCA | 0.0744

Row | Sequence | PBM E-score
101 | ATGCTGGG | -0.00432
102 | AATTTACG | 0.234
103 | ACCAGTCG | -0.175
104 | AAGTCGGC | -0.164
105 | CAGAGAAA | 0.147
106 | ATCGTGTC | 0.0401
107 | ACGAAGTC | 0.0346
108 | ACACTCAT | 0.111
109 | GCGGCCGC | -0.326
110 | CCCTAATC | 0.0683
111 | CATGCCCA | -0.321
112 | ACGAAAGG | 0.0313
113 | ATAAACGA | 0.208
114 | CAACGACG | -0.0932
115 | AGCGTGTG | -0.00995
116 | ACTCTAGA | 0.122
117 | ATCTTGGA | -0.0269
118 | CGAGACAC | -0.258
119 | GTTGTTTA | 0.237
120 | AGGCCAAC | -0.251
121 | GCATGGAC | -0.0369
122 | CTGAATCA | 0.104
123 | CAGACCGG | -0.221
124 | ATTGATGC | 0.181
125 | GCATAACA | 0.203

Row | Sequence | PBM E-score
126 | CGATCGAG | 0.179
127 | AGAGGCCG | -0.323
128 | ATATAAAA | 0.154
129 | CCGGCACA | -0.186
130 | ACGGTTTA | -0.0471
131 | ACTTATCT | 0.1
132 | GCTTTTAC | -0.0399
133 | GTGAACGA | -0.0458
134 | CACGAGAA | -0.0477
135 | GCGGTTAA | -0.00792
136 | GACCTAGC | -0.13
137 | CTCGTGAA | 0.0406
138 | CCATCGGA | -0.0569
139 | CGTCAGAC | -0.106
140 | AGATTTTC | 0.0614
141 | AACGGCGC | -0.215
142 | GTCTTTTA | -0.113
143 | CGTCCGAA | -0.0109
144 | CACGGCAG | -0.0512
145 | AACGTAAA | 0.21
146 | ATGATGTG | 0.145
147 | ATAGGTCC | 0.139
148 | GCAAGTGC | -0.22
149 | ATAGAAGG | -0.172
150 | AGCCCCTG | -0.274

49 entries from above, with tabs.
Row	Sequence	PBM E-score
100	GAGATGCA	0.0744
101	ATGCTGGG	-0.00432
102	AATTTACG	0.234
103	ACCAGTCG	-0.175
104	AAGTCGGC	-0.164
105	CAGAGAAA	0.147
106	ATCGTGTC	0.0401
107	ACGAAGTC	0.0346
108	ACACTCAT	0.111
109	GCGGCCGC	-0.326
110	CCCTAATC	0.0683
111	CATGCCCA	-0.321
112	ACGAAAGG	0.0313
113	ATAAACGA	0.208
114	CAACGACG	-0.0932
115	AGCGTGTG	-0.00995
116	ACTCTAGA	0.122
117	ATCTTGGA	-0.0269
118	CGAGACAC	-0.258
119	GTTGTTTA	0.237
120	AGGCCAAC	-0.251
121	GCATGGAC	-0.0369
122	CTGAATCA	0.104
123	CAGACCGG	-0.221
124	ATTGATGC	0.181
125	GCATAACA	0.203
126	CGATCGAG	0.179
127	AGAGGCCG	-0.323
128	ATATAAAA	0.154
129	CCGGCACA	-0.186
130	ACGGTTTA	-0.0471
131	ACTTATCT	0.1
132	GCTTTTAC	-0.0399
133	GTGAACGA	-0.0458
134	CACGAGAA	-0.0477
135	GCGGTTAA	-0.00792
136	GACCTAGC	-0.13
137	CTCGTGAA	0.0406
138	CCATCGGA	-0.0569
139	CGTCAGAC	-0.106
140	AGATTTTC	0.0614
141	AACGGCGC	-0.215
142	GTCTTTTA	-0.113
143	CGTCCGAA	-0.0109
144	CACGGCAG	-0.0512
145	AACGTAAA	0.21
146	ATGATGTG	0.145
147	ATAGGTCC	0.139
148	GCAAGTGC	-0.22

The list goes on.

Row | Sequence | PBM E-score
151 | AACCCTAA | 0.00675
152 | AGTGCCCG | -0.0819
153 | CTGCGCTC | -0.284
154 | ACGCGTCT | -0.0308
155 | GACGTCAA | 0.163
156 | ATCTTTTA | 0.0751
157 | GCACGGGC | -0.311
158 | AAAGCCGT | -0.198
159 | CTGAATGA | 0.0842
160 | CTACAGCC | -0.13
161 | CTAGGAAC | -0.124
162 | AAAACTGC | 0.0313
163 | CGTGGACA | -0.0352
164 | AACCGTTG | 0.116
165 | CGCATGCG | -0.0499
166 | ACGGTCGA | -0.0133
167 | ACAGGGCC | -0.036
168 | AATGATGC | 0.114
169 | AGCAAAAC | 0.102
170 | AATCAGTG | 0.133
171 | AGTTTGGG | 0.162
172 | AGCGGATC | 0.0955
